These are yes or no findings as the source states them, for the method shown. Some results given as binding are weak or reduced against the parent protein; the word gives no strength. Tags and fused reporters may be left off the sequences shown.
T1: wild-type CNTFR-Fc (human, UniProt P26992 23-342)
T1 construct: also called wtCNTFR-Fc; not shown: Fc domain; captured with anti-mouse Fc antibody
T1 sequence: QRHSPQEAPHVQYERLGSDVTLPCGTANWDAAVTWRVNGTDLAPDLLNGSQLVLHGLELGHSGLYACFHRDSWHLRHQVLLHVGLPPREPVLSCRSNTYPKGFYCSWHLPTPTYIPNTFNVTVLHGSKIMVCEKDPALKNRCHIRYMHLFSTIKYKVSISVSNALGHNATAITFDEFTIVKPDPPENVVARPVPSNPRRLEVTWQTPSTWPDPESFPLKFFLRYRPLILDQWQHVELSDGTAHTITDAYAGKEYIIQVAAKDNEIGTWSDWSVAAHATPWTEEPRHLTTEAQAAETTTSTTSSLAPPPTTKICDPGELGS

T2: wild-type CNTFR-HIS (human, UniProt P26992 23-342)
T2 construct: also called wtCNTFR-HIS; HIS tagged CNTFR; not shown: HIS tag
T2 sequence: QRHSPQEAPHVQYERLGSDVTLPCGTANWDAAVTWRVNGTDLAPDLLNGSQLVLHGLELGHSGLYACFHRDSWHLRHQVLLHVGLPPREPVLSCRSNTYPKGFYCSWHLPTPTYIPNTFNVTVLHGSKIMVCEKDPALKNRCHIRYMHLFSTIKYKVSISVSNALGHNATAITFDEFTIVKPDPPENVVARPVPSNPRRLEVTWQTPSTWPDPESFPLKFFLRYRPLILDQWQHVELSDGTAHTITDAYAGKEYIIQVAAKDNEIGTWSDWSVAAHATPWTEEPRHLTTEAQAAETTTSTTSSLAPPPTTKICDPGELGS


Key:
wild-type CNTFR-Fc = target: T1, wild-type CNTFR-Fc; test: sandwich ELISA, soluble CLCF1 titrated against 2 nM CNTFR-Fc, anti-mouse-Fc capture, anti-CLCF1 detection
Protocol: The CLCF1 variants isolated from screening were cloned into the pET28b bacterial expression plasmid and expressed and purified. […] A sandwich ELISA was performed using an anti-mouse Fc antibody as a capturing agent for wtCNTFR-Fc, followed by an anti-CLCF1 antibody as a detection agent for the bound complex. […] ELISA was also used to measure binding interactions with the gp130 and LIFR beta receptors.
To measure the solution-phase binding interaction between the CLCF1 constructs and CNTFR, different concentrations of soluble, recombinant CLCF1 variants and wtCLCF1 were incubated with 2 nM CNTFR-Fc in BPBS for 12 h at room temperature. The mixture was then added to 96-well plates coated with anti-mouse-Fc antibody for 1 h followed by washing with BPBS twice. Subsequently, the wells were incubated with 1:1000 diluted anti-CLCF1 rabbit antibody for 2 h at room temperature then washed four times with BPBS. The wells were incubated with a 1:1000 diluted HRP conjugated anti-rabbit antibody for 2 h at room temperature, and washed four times with BPBS. 1-Step Ultra TMB ELISA was used for the readout, which was measured using a plate reader (Tecan).

wild-type CNTFR-HIS [1] = target: T2, wild-type CNTFR-HIS; test: flow cytometry, yeast-displayed CLCF1 construct, soluble CNTFR-HIS titrated, anti-HIS Hilyte Fluor 488 detection
Protocol: Using equilibrium binding conditions and screened by flow cytometric sorting (FACS), high throughput screening of the CLCF1 library using wtCNTFR-HIS was performed to enrich variants showing increased CLCF1 binding. Expression signal was used to normalize CNTFR binding to distinguish high expressers from high affinity binders. Screening stringency was increased throughout sorting by decreasing the concentration of wtCNTFR-HIS incubated with the library. […] Thus a variant containing the three mutations (named FRR-CLCF1) was chosen for further characterization (FIG. 7).
Yeast displaying CLCF1 constructs were incubated with varying concentrations of CNTFR for 12 h at room temperature to reach equilibrium binding. This was followed by washing with BPBS and resuspension in PBSA with 1:500 ratio of chicken anti-c-Myc (Invitrogen) for 30 min at 4 C. Yeast were then washed and pelleted, and secondary labeling was performed on ice for 30 min using PBSA with 1:100 dilution of goat anti-chicken PE (Santa Cruz) and mouse anti-HIS Hilyte Fluor 488 (Anaspec). Then samples were washed and analyzed by flow cytometry using Accuri (BD Biosciences). Samples were analyzed on BD Bioscience software, and data were analyzed using FlowJo software. Kd values were determined by fitting to a four-parameter sigmoidal curve. Error bars represent the standard deviation of triplicate experiments.

wild-type CNTFR-HIS [2] = target: T2, wild-type CNTFR-HIS; test: flow cytometry, yeast-displayed CLCF1 construct, soluble CNTFR titrated

Row | Binder | binding (wild-type CNTFR-Fc) | binding (wild-type CNTFR-HIS [1]) | binding (wild-type CNTFR-HIS [2])
1 | v3 (ligand) CLCF1 variant displayed on yeast as Aga2p fusion with c-myc tag: LNRTGDPGPGPSIQKTYDLTRYLEHQLRSLAGTYLNYLGPPFNEPDFNPPRLGAETLPRATVDLEVWRSLNDKLRLTQNYEAYSHLLCYLRGLNRRAATAELRRSLAHFCTSLQGLLGSIAGVMAALGYPLPQPLPGTEPTWTPGPARSDFLQKMDDFWLLKELQTWLWRSAKDFNRLKKKMQPPAAAVTLHLGAHGF | binds | binds | –
2 | v3 (ligand) CLCF1 variant displayed on yeast as Aga2p fusion with c-myc tag: LNRTGDPGPGPSIQKTYDLTRYLEHQLRSLAGTYLNYLGPPFNEPDFNPPRLGAETLPRATVDLEVWRSLNDKLRLTQNYEAYSHFLCYLRGLNRRAATAELRRSLAHFCTSLQGLLGSIAGVMAALGYPLPQPLPGTEPTWTPGPARSDFLQKMDDFWLLKELQTWLWRSAKDFNRLKRKMQPPAAAVTLHLGAHGF | – | – | binds

Now from value to binder:

Row | binding (wild-type CNTFR-Fc) | binding (wild-type CNTFR-HIS [1]) | binding (wild-type CNTFR-HIS [2]) | Binder
3 | binds | – | – | v1 (ligand) soluble CLCF1 variant: LNRTGDPGPGPSIQKTYDLTRYLEHQLRSLAGTYLNYLGPPFNEPDFNPPRLGAETLPRATVDLEVWRSLNDKLRLTQNYEAYSHLLCYLRGLNRRAATAELRRSLAHFCTSLQGLLGSIAGVMAALGYPLPQPLPGTEPTWTPGPAHSDFLQKMDDFWLLKELQTWLWRSAKDFNRLKKKMQPPAAAVTLHLGAHGF
4 | binds | binds | – | v2 (ligand) CLCF1 variant displayed on yeast as Aga2p fusion with c-myc tag: LNRTGDPGPGPSIQKTYDLTRYLEHQLRSLAGTYLNYLGPPFNEPDFNPPRLGAETLPRATVDLEVWRSLNDKLRLTQNYEAYSHFLCYLRGLNRRAATAELRRSLAHFCTSLQGLLGSIAGVMAALGYPLPQPLPGTEPTWTPGPAHSDFLQKMDDFWLLKELQTWLWRSAKDFNRLKKKMQPPAAAVTLHLGAHGF
5 | – | – | binds | v2 (ligand) CLCF1 variant displayed on yeast as Aga2p fusion with c-myc tag: LNRTGDPGPGPSIQKTYDLTRYLEHQLRSLAGTYLNYLGPPFNEPDFNPPRLGAETLPRATVDLEVWRSLNDKLRLTQNYEAYSHFLCYLRGLNRRAATAELRRSLAHFCTSLQGLLGSIAGVMAALGYPLPQPLPGTEPTWTPGPARSDFLQKMDDFWLLKELQTWLLRSAKDFNRLKKKMQPPAAAVTLHLGAHGF

Source: patent US20190328837A1 (Stanford University, published 2019)
